{"source": "paper PMC5814396", "binders": {"B1": {"name": "wild-type NBCe1-A-EGFP (protein, UniProt Q9Y6R1-2 1-1035)", "chain": "MSTENVEGKPSNLGERGRARSSTFLRVVQPMFNHSIFTSAVSPAAERIRFILGEEDDSPAPPQLFTELDELLAVDGQEMEWKETARWIKFEEKVEQGGERWSKPHVATLSLHSLFELRTCMEKGSIMLDREASSLPQLVEMIVDHQIETGLLKPELKDKVTYTLLRKHRHQTKKSNLRSLADIGKTVSSASRMFTNPDNGSPAMTHRNLTSSSLNDISDKPEKDQLKNKFMKKLPRDAEASNVLVGEVDFLDTPFIAFVRLQQAVMLGALTEVPVPTRFLFILLGPKGKAKSYHEIGRAIATLMSDEVFHDIAYKAKDRHDLIAGIDEFLDEVIVLPPGEWDPAIRIEPPKSLPSSDKRKNMYSGGENVQMNGDTPHDGGHGGGGHGDCEELQRTGRFCGGLIKDIKRKAPFFASDFYDALNIQALSAILFIYLATVTNAITFGGLLGDATDNMQGVLESFLGTAVSGAIFCLFAGQPLTILSSTGPVLVFERLLFNFSKDNNFDYLEFRLWIGLWSAFLCLILVATDASFLVQYFTRFTEEGFSSLISFIFIYDAFKKMIKLADYYPINSNFKVGYNTLFSCTCVPPDPANISISNDTTLAPEYLPTMSSTDMYHNTTFDWAFLSKKECSKYGGNLVGNNCNFVPDITLMSFILFLGTYTSSMALKKFKTSPYFPTTARKLISDFAIILSILIFCVIDALVGVDTPKLIVPSEFKPTSPNRGWFVPPFGENPWWVCLAAAIPALLVTILIFMDQQITAVIVNRKEHKLKKGAGYHLDLFWVAILMVICSLMALPWYVAATVISIAHIDSLKMETETSAPGEQPKFLGVREQRVTGTLVFILTGLSVFMAPILKFIPMPVLYGVFLYMGVASLNGVQFMDRLKLLLMPLKHQPDFIYLRHVPLRRVHLFTFLQVLCLALLWILKSTVAAIIFPVMILALVAVRKGMDYLFSQHDLSFLDDVIPEKDKKKKEDEKKKKKKKGSLDSDNDDSDCPYSEKVPSIKIPMDIMEQQPFLSDSKPSDRERSPTFLERHTSC"}, "B2": {"name": "NBCe1-A-EGFP Q913R (protein, UniProt Q9Y6R1-2 1-1035)", "chain": "B1 chain with Q913R"}, "B3": {"name": "NBCe1-A-EGFP Q913C (protein, UniProt Q9Y6R1-2 1-1035)", "chain": "B1 chain with Q913C"}, "B4": {"name": "NBCe1-A-EGFP Q913E (protein, UniProt Q9Y6R1-2 1-1035)", "chain": "B1 chain with Q913E"}, "B5": {"name": "NBCe1-A-EGFP Q913K (protein, UniProt Q9Y6R1-2 1-1035)", "chain": "B1 chain with Q913K"}, "B6": {"name": "NBCe1-A-EGFP Q913L (protein, UniProt Q9Y6R1-2 1-1035)", "chain": "B1 chain with Q913L"}, "B7": {"name": "NBCe1-A-EGFP Q913S (protein, UniProt Q9Y6R1-2 1-1035)", "chain": "B1 chain with Q913S"}}, "test_in_all_cases": "SDS-PAGE and anti-EGFP western blot (dimer band that survives SDS); biotinylated plasma-membrane fraction of groups of 15 cRNA-injected Xenopus oocytes, resolved on 3-8% Tris-Acetate gels; upper band taken as dimer that is kept during SDS-solubilization", "key": {"[1]": {"target": "wild-type NBCe1-A-EGFP (human) (UniProt Q9Y6R1)"}, "[2]": {"target": "NBCe1-A-EGFP Q913R (human) (UniProt Q9Y6R1)"}, "[3]": {"target": "NBCe1-A-EGFP Q913C (human) (UniProt Q9Y6R1)"}, "[4]": {"target": "NBCe1-A-EGFP Q913E (human) (UniProt Q9Y6R1)"}, "[5]": {"target": "NBCe1-A-EGFP Q913K (human) (UniProt Q9Y6R1)"}, "[6]": {"target": "NBCe1-A-EGFP Q913L (human) (UniProt Q9Y6R1)"}, "[7]": {"target": "NBCe1-A-EGFP Q913S (human) (UniProt Q9Y6R1)"}}, "note": "Positions count from the first letter of the chain named. Names may count otherwise. No constants are given. Whether binding was seen depends on the method and setting. Some entries that bind do so weakly or less than the wild type. Where a sequence is shown, tags or fusion partners need not be part of it."}
{"binder": "B1", "values": [{"measurement": "binding", "setting": "[1]", "result": "binds"}]}
{"binder": "B2", "values": [{"measurement": "binding", "setting": "[2]", "result": "binds"}]}
{"binder": "B3", "values": [{"measurement": "binding", "setting": "[3]", "result": "binds"}]}
{"binder": "B4", "values": [{"measurement": "binding", "setting": "[4]", "result": "binds"}]}
{"binder": "B5", "values": [{"measurement": "binding", "setting": "[5]", "result": "binds"}]}
{"binder": "B6", "values": [{"measurement": "binding", "setting": "[6]", "result": "binds"}]}
{"binder": "B7", "values": [{"measurement": "binding", "setting": "[7]", "result": "binds"}]}
